About 7,500 (2.1%) of roughly 360,000 compounds were called active. The inconclusive results got no clear call from the source; some entries with a clear call stand among them for comparison. The call rests on the fitted dose curve; in most records, active means well fitted inhibition curve with a large enough effect; inconclusive means small, poorly fitted or top-dose-only effect, or effect the other way; inactive means flat fitted curve, though single readings scatter. A potency beside an inconclusive call is a rough fit, not a confirmed value.
Experiment: Nrf2 qHTS screen for inhibitors; further: nearly all actives have a fitted effect of over 60% in size
Settings: A549 ARE-Fluc reporter, luciferase luminescence, 18-24 h; series mostly up to 46 µM
In short: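 Nrf2 function is reported as luminescence of an ARE-controlled luciferase in A549 cells. Compounds were tested at several concentrations, and a CellTiter-Fluor read on the same wells flagged cytotoxicity.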
Potency means the concentration at half of the fitted maximal effect.

Compound | Potency
O=C(COc1ccc(Cl)cc1)NCc1n[nH]c(=O)c2ccccc12 | inconclusive: 18.4 µM [falling, partial curve, poor fit]
CCCCN1CN=C(Nc2nc3ccccc3o2)NC1 | inconclusive: 4.11 µM [activator, full curve]
CC(=O)Nc1ccc(NC(=O)c2c(C)nn(-c3ccccc3)c2-n2cccc2)cc1 | inactive
O=C(c1ccccc1)N1CCN(c2nc(-c3cccs3)nc3ccccc23)CC1 | inconclusive: 23.1 µM [falling, single point]
CC(=O)Nc1ccc(S(=O)(=O)Nc2cc(C)cn(Cc3ccc(C)cc3)c2=O)cc1 | inconclusive: 16.4 µM [falling, partial curve, poor fit]
CCC1=Nc2cc(C(=O)NCCCOC(C)C)ccc2Sc2ccccc21 | inconclusive: 11.6 µM [falling, partial curve]
CN1C(=O)Cc2cc(S(=O)(=O)CCC(=O)N3CCN(c4cccc(Cl)c4)CC3)ccc21 | inactive
CCc1ccc(NC(=O)c2c(C(=O)Nc3ccccc3)sc3nc(C)cc(=O)n23)cc1 | inconclusive: 5.8 µM [falling, partial curve]
C[C@@H]1CN([C@@H](C)CO)C(=O)Cc2cc(NC(=O)Nc3ccc(F)cc3)ccc2O[C@@H]1CN(C)Cc1ccc(Cl)c(Cl)c1 | inconclusive: 29.1 µM [falling, single point]
O=C(NCc1ccccc1Cl)C1CCCN(c2ncnc3c2nc2n3CCCCC2)C1 (stereo unspecified) | inconclusive: 18.4 µM [falling, partial curve, poor fit]
COc1cc(-c2noc(C3CC(=O)N(c4cc(C)ccc4C)C3)n2)cc(OC)c1OC (stereo unspecified) | inconclusive: 1.64 µM [falling, partial curve, poor fit]
C=C(C)COc1ccc(-c2nc(N)nc(C(F)(F)F)c2-c2ccc(OC)cc2)c(O)c1 | inconclusive: 29.1 µM [falling, single point]
N#Cc1c(Sc2ncc(C(F)(F)F)cc2Cl)nsc1C/C=N\OCc1c(F)cccc1Cl | inconclusive: 20.6 µM [falling, single point]
Cc1ccsc1CCN1C(=O)N(c2ccc(F)cc2)C(=O)C1CC(=O)Nc1ccccc1 (stereo unspecified) | inactive
COc1cc(C(=O)NCC(=O)NNC(=O)C2COc3ccccc3O2)cc(OC)c1OC (stereo unspecified) | inconclusive: 18.4 µM [activator, partial curve, poor fit]
Cc1cc(C(=O)OCC(=O)Nc2c(F)cccc2F)c(C)n1-c1ccccc1 | inconclusive: 29.1 µM [falling, single point]

Two neighbouring records from above:
Compound | Potency
C=C(C)COc1ccc(-c2nc(N)nc(C(F)(F)F)c2-c2ccc(OC)cc2)c(O)c1 | inconclusive: 29.1 µM [falling, single point]
N#Cc1c(Sc2ncc(C(F)(F)F)cc2Cl)nsc1C/C=N\OCc1c(F)cccc1Cl | inconclusive: 20.6 µM [falling, single point]
